The values that follow come from patent US10414891B2, “Polyurethane curatives” (The Shepherd Chemical Company, priority 2015, dated 2019).

The nature of data set [1]: VOC (fogging) measurement of PU formulation under standardized automotive conditions. The conditions noted are these: same formulation and same use level as stannous octanoate.
Data set [2] can be described thus: Foam kinetics and density of two-component PU system. The conditions noted are these: 0.02% w/w catalyst, TDI 80-20 / polyester polyol, water 3.5 w/w.

Turning to “bismuth, 2,2′,2″,2′″-(1,2-ethanediyldinitrilo)tetrakis[ethanol] neodecanoate complexes [Curative 8842]”, the “VOC's compared between the BiCAT systems” value in data set [1] is listed as “the same”. In data set [2], the Cream time is on record as 14 min, the “Foam Density” value is on record as 35.4 kg/m^3 and the Tack free time amounted to 89 min.
“bismuth, 1,1′,1″,1′″-(1,2-ethanediyldinitrilo)tetrakis[2-propanol] neodecanoate complexes [Curative 8840]”: the “VOC's compared between the BiCAT systems” value in data set [1] was “the same”.
As to `CCCCC(CC)C(=O)[O-].CCCCC(CC)C(=O)[O-].[Sn+2]` (centres unmarked) [Stannous Octoate, stannous octoate, reference compound], in data set [2], the Cream time stood at 15 min, the “Foam Density” value came out at 35.1 kg/m^3 and the Tack free time is 88 min.
